Values of other authors, collected in patent US20220176084A1, “MEDICAL DEVICE WITH DRUG-ELUTING COATING ON MODIFIED DEVICE SURFACE” (Bard Peripheral Vascular, Inc., priority 2019, published 2022).
For at least one compound, name, drawing or mass did not settle the structure.

Settings: cited from earlier work

CCCCC(CC)COC(=O)CC(C(=O)OCC(CC)CCCC)S(=O)(=O)[O-].[Na+] (stereo not shown) [docusate sodium]
HLB: 10
